Results as given in the supplement of paper PMC6445147.
Single values of this data set are uncertain.

B1: human tRNA-Pro; a variant is named by its letters at N, in order (parent)
chain: GGCTCGTTGGTCTAGNGGTATGATTCTCGCTTAGGGTGCGAGAGGTCCCGGGTTCNNATCCCGGACGAGCCC

Variants of: B1
Assay: tRNA 3' processing efficiency (processed reads / all reads, maximum-likelihood estimate) (fraction); higher = more efficient 3' processing
Settings: HEK293T; construct: no Pol-II promoter ((-)CMV library)

tRNA 3' processing efficiency, 0.17:
TAA A20C A58C T59G
CTA G15T A20G
TGG G17T T59C
TGA T8C T19G
GGA A14T T19C A20T A58T
TTC A14T G17C T19C
GAA T8G A14T G18A T19C A20T A58C
GGA T8A G18A G40A

tRNA 3' processing efficiency, 0.83:
TCA T19A T59G

tRNA 3' processing efficiency, 0.11:
GAA T8C A14G G51A T59A

tRNA 3' processing efficiency, 0.32:
CAT G50A T59A

tRNA 3' processing efficiency, 0.34:
GAA G9A A33G A58T

tRNA 3' processing efficiency, 0.22:
GTC G9A A14G A58T T59C

tRNA 3' processing efficiency, 0.4:
GCA G9T T19A A20T
ACG A14G T19A
GTA A14G T19G T59G
GTA A14G G17T A20T T59C
AAA T8C G9T T19A A58T
CGA G9A A14T C55T
CCA A20T A58G
CAT A14T A58T
GAA T8C G15A G17A T19C T59G
GTA A14C G17A T59G
GAA G15C G18A T19C A58T
AAG G9C T19A A20T
CAA G18C A20T T59A
AAC T19G A20T T59G
TGG T59G
GAA A58G G64A

No new results follow: entries from further up.
tRNA 3' processing efficiency, 0.4:
GAA T8C G15A G17A T19C T59G
GTA A14C G17A T59G
GAA G15C G18A T19C A58T
AAG G9C T19A A20T
CAA G18C A20T T59A
AAC T19G A20T T59G

Next part.

tRNA 3' processing efficiency, 0.14:
GAG T8G A14C G34T A58T T59A

tRNA 3' processing efficiency, 0.69:
TAA A14T A20T T53A T59C

tRNA 3' processing efficiency, 0.13:
CAA A20G G35A T54A
GTA T8G G18T A58G
CAA G15C A58T T59G

tRNA 3' processing efficiency, 0.73:
CAA G15A T54A A58T
GTA A14G G15T A20T T53A T59C

tRNA 3' processing efficiency, 0.25:
GAA T8A G15A G18C A58T
GTA G17T A20C A58T
GGA G18T T19C A58C
AAC G50A
CAT T8A G15A
GAG G15C T19A T59A
GTT G15A T59G
TTT G18A A58T
GTC T8A G17C A20G
TGG G9A T19G A58T
GAC T7C G17C
GGA A14G T19G A58C
TTA G9A G15T A20G T53G
TTA T53A A58C
GGA A14G G17A A58T
GAA T8G A14C A20T T53A
GAT G36A
TCA T19A A58C
AAA T8G G9T T19A A58C
AGC A14G G17T
GTA G9A A14T T59A
GCA G9C G50T
GTA G17T T19G A58G
GGA G18A T19C T59C
GGA T8C A33G A58T
TCA G15T G22A T59G
GGA T8C T19A C55G
CTT A14T T19G
GAA G44T
AGA A14C T19A T59A
TAG T19A T54A T59C
GGC A14T A58G
GAC A14C G18A T19C
GTA G17A G18A T19A
CGG G15A G17A A20G T53A
GAT G9A T19C T59G
AAA A14T A20C T53C T59C
CAG T8G A14G G18C
GAA G15C T19A A20C T53A
GGA C55T A58T T59C
CAT A14C G15A G17C
AGT T8C A58G
AAG T8G G18C
CTA T8G G17A A20C T59A
GTT T19G T59G

tRNA 3' processing efficiency, 0.1:
AAG A14G A20G
GAA T8G G18A T19C T59C

tRNA 3' processing efficiency, 0.55:
GTA A20G A58G T59G

tRNA 3' processing efficiency, 0.19:
GAA G15A G17C A58T T59A
ATA G9A T19G A58T

tRNA 3' processing efficiency, 0.79:
CAA A33G A58G T59A

tRNA 3' processing efficiency, 0.57:
GAA G18T T46A T53A

tRNA 3' processing efficiency, 0.08:
GAA A20T G51A

tRNA 3' processing efficiency, 0.44:
GGG T8G G15T
GGA T19C T53C C55T

tRNA 3' processing efficiency, 0.56:
ATA T19G T53G A58G
CAA G15A T53A
CCA G9C T19A

tRNA 3' processing efficiency, 0.38:
GGA T19G C55G A58G
GAG T19A A20C A58T

tRNA 3' processing efficiency, 0.07:
TGC A58G

tRNA 3' processing efficiency, 0.76:
GTA T8C G9T A58T

tRNA 3' processing efficiency, 0.5:
TTA A14G A58T
GGT G9A A14T A20T
GAA A14C G15T T19A A58G T59G
GAC T8G G40A
GAA G15A A33G T59G
GGA A14G G15C C55G
GAA G17A A20T T53G A58T
ATA T8C T19G A58C
AAA A14T T19G T59G
GGA A14T A33G A58T
AAT T8A A20T
GAC G17A G18A T19C A33G
CAA G9T A14T C55T

Quoted at random: 4 records from the list, in no set order.
tRNA 3' processing efficiency, 0.5:
GAA G17A A20T T53G A58T
GGT G9A A14T A20T
ATA T8C T19G A58C
CAA G9T A14T C55T

Next part.

tRNA 3' processing efficiency, 0.2:
TTT T8C
GTG G18A A20T
GAA G18T A33G A58T
AGA G17T A20C T59G
GAA G9A A14T A58G T59C
TGC G15T
AGG T8G A14T T19A
TCC G15C
TTA A14T T59G
GAG T19A T53A
TCT A20T
TCA A14G G17T T59G
CAA A20T T53A T59G
TGA T19G T53G A58G
TAA A14C G17A T19G T59G
CCA A14T T59G
TAA T8C T53G T54C T59G
GAA A14G G15T G18A T19C T53G T59C
GGA G50C A58G
GTG G17T T19A A20T

tRNA 3' processing efficiency, 0.29:
GAA A14C G51A
GCA G15C G51A
CAA T53C A58C T59A
CAA T8A G9T G15C T53A

tRNA 3' processing efficiency, 0.81:
CAG A14T G17T

tRNA 3' processing efficiency, 0.67:
GGA T8G G15T T59A

tRNA 3' processing efficiency, 0.43:
AGT T19G
GTG A14C G15C
CAT G9C T59G
GAA G9A G18A T53A T59A
CAA T19A A20C T54A T59G

tRNA 3' processing efficiency, 0.6:
GAA G17A T19A G51C T53A
TGA G17A A58C

tRNA 3' processing efficiency, 0.62:
GGA T8A A14C G17T
TCA A14T T59G
GCA A23T C55G
CAG T19A T59C
TGG A20T A58T
GAG T8C A14C T59A

tRNA 3' processing efficiency, 0.23:
AAG T8C A14G A20G

tRNA 3' processing efficiency, 0.33:
GGA G15A T19A T53A T59A
TAA A14T T19G A58G
GAA T8G G15C G17A T19G
GGA A14G G17A A58G T59G
AAA A14G T54A
ATA A14T G17A T19G A58T

Variants of: B1
Assay: tRNA 5' processing efficiency (processed reads / all reads, maximum-likelihood estimate) (fraction); higher = more efficient 5' processing
Settings: HEK293T; construct: CMV Pol-II promoter ((+)CMV library, decapped)

tRNA 5' processing efficiency, 0.38:
GAA A14G C55T A58T T59G

tRNA 5' processing efficiency, 0.25:
GGA T8G C55A
GAT A14T A58T T59C
GAA C55A A58G

tRNA 5' processing efficiency, 0.5:
GTA A14G G17T A20G C55T T59C
CAA T8A A14T T53C A58T T59C

tRNA 5' processing efficiency, 0.4:
GTG T53A A58G

tRNA 5' processing efficiency, 0.33:
CAA G15A T53A
GAA T8A A14T C55G T59A
GGT G9T A14C G15A G17A T59A
